From patent publication US20060130172A1, “Gene encoding resistance to acetolactate synthase-inhibiting herbicides” (priority 2003, published 2006)
Some of these results come from one statement about several compounds together.

Each compound was assayed on R11-AMACH smooth pigweed (assay: Greenhouse screen of ALS-inhibiting herbicides on resistant smooth pigweed biotype). Conditions: whole plant, based on the response of S-AMACH.
Type: in vivo, Amaranthus hybridus L.
From the text: Seeds from a smooth pigweed (Aniaranthus hybridus L.) population (R11-AMACH) were collected from a field in southeastern Pennsylvania where extreme ALS-inhibitor herbicide selection pressure was imposed over a several year period within continuous soybean production. R11-AMACH was selected naturally with ALS-inhibiting herbicides representative of the SU, IMI, and TP herbicide chemistries.
To establish levels and patterns of ALS resistance, R11-AMACH and an ALS susceptible smooth pigweed biotype (S-AMACH) were screened in the greenhouse with various rates of the ALS-inhibiting herbicides, chlorimuron (SU), thifensulfuron (SU), imazethapyr (IMI), pyrithiobac (POB), and cloransulam-methyl (TP). Rates evaluated were based on a log10 scale that included 0, 1/100×, 1/10×, 1×, 10×, and 100×, where 1× corresponds to the normal use rate in the field. R11-AMACH responded differently to the rate increase as compared to S-AMACH. […] Visual control, height, biomass, and biomass reduction are presented separately for chlorimuron (Table 3), thifensulfuron (Table 4), imazethapyr (Table 5), pyrithiobac (Table 6), and cloransulam (Table 7). Evaluations and measurements were recorded 3 weeks after herbicide treatment (WAT). Visual control was based on a scale of 0-99%, where 0% represents no control and 99% represents complete control. Biomass represents plant dry weights recorded several days after plants were harvested. Biomass reduction was calculated based on the amount of biomass reduced by herbicide treatment compared to the untreated plant biomass.
With `CCOc1nc(F)cc2nc(S(=O)(=O)Nc3c(Cl)cccc3C(=O)OC)nn12` [cloransulammethyl] the R11-AMACH resistance levels was “above 100 times the normal use rate”.
With `CCc1cnc(C2=NC(C)(C(C)C)C(=O)N2)c(C(=O)O)c1` (stereo not drawn) [imazethapyr, 2-[4,5-dihydro-4-methyl-4-(1-methylethyl)-5-oxo-1H-imidazol-2-yl]-5-ethyl-3-pyridinecarboxylic acid] the R11-AMACH resistance levels was “greater than 10 times the normal use rate”.
In the case of `COc1cc(OC)nc(Sc2cccc(Cl)c2C(=O)O)n1` [pyrithiobac, 2-chloro-6-[(4,6-dimethoxy-2-pyrimidinyl)thio]benzoic acid], the R11-AMACH resistance levels is reported as “greater than 10 times the normal use rate”.
